{"source": "paper PMC12820563", "about": "“FoxP3 forms a head-to-head dimer in vivo and stabilizes its multimerization on adjacent microsatellites”", "binders": {"B1": {"name": "mouse FoxP4^RBR-forkhead (residues 418–557) (domain or fragment, UniProt Q9DBY0 418-557)", "chain": "GLGSASLHSGGPARRRSNDKFCSPISSELAQNHEFYKNADVRPPFTYASLIRQAILETPDRQLTLNEIYNWFTRMFAYFRRNTATWKNAVRHNLSLHKCFVRVENVKGAVWTVDEREYQKRRPPKMTGSPTLVKNMISGL"}, "B2": {"name": "mouse FoxP2^RBR-forkhead (residues 447–588) (domain or fragment, UniProt P58463 447-588)", "chain": "TTPTAPVTPITQGPSVITPASVPNVGAIRRRHSDKYNIPMSSEIAPNYEFYKNADVRPPFTYATLIRQAIMESSDRQLTLNEIYSWFTRTFAYFRRNAATWKNAVRHNLSLHKCFVRVENVKGAVWTVDEVEYQKRRSQKIT"}}, "key": {"[1]": {"biological_target": "mouse FoxP4^RBR-forkhead (residues 418–557) (mouse) (UniProt Q9DBY0)", "experiment": "native gel or EMSA; RBR-FKH protein (0.8 μM) with DNA harbouring IR-FKHM (0.2 μM) in the presence of NFAT (0.4 μM); 20 mM HEPES pH 7.5, 150 mM NaCl, 1.5 mM MgCl2, 2 mM DTT, 10 min at 4°C; 3–12% Bis-Tris native gel, SYBR Gold; monomer or dimer on the DNA told by the band pattern; both purified"}, "[2]": {"biological_target": "mouse FoxP4^RBR-forkhead (residues 418–557) (mouse) (UniProt Q9DBY0)", "experiment": "native gel or EMSA; RBR-FKH protein (0.8 μM) with DNA harbouring a single FKHM (sFKHM, 0.2 μM) in the presence of NFAT (0.4 μM); 20 mM HEPES pH 7.5, 150 mM NaCl, 1.5 mM MgCl2, 2 mM DTT, 10 min at 4°C; 3–12% Bis-Tris native gel, SYBR Gold; both purified"}, "[3]": {"biological_target": "mouse FoxP2^RBR-forkhead (residues 447–588) (mouse) (UniProt P58463)", "experiment": "native gel or EMSA; RBR-FKH protein (0.8 μM) with DNA harbouring IR-FKHM (0.2 μM) in the presence of NFAT (0.4 μM); 20 mM HEPES pH 7.5, 150 mM NaCl, 1.5 mM MgCl2, 2 mM DTT, 10 min at 4°C; 3–12% Bis-Tris native gel, SYBR Gold; monomer or dimer on the DNA told by the band pattern; both purified"}, "[4]": {"biological_target": "mouse FoxP2^RBR-forkhead (residues 447–588) (mouse) (UniProt P58463)", "experiment": "native gel or EMSA; RBR-FKH protein (0.8 μM) with DNA harbouring a single FKHM (sFKHM, 0.2 μM) in the presence of NFAT (0.4 μM); 20 mM HEPES pH 7.5, 150 mM NaCl, 1.5 mM MgCl2, 2 mM DTT, 10 min at 4°C; 3–12% Bis-Tris native gel, SYBR Gold; both purified"}}, "note": "These are yes or no findings as the source states them, for the method shown.", "data": [{"binder": "B1", "values": [{"measurement": "binding", "setting": "[1]", "value": "no binding (tested: 0.8 μM protein with 0.2 μM DNA)"}, {"measurement": "binding", "setting": "[2]", "value": "no binding (tested: 0.8 μM protein with 0.2 μM DNA)"}]}, {"binder": "B2", "values": [{"measurement": "binding", "setting": "[3]", "value": "no binding (tested: 0.8 μM protein with 0.2 μM DNA)"}, {"measurement": "binding", "setting": "[4]", "value": "no binding (tested: 0.8 μM protein with 0.2 μM DNA)"}]}]}
